# From patent publication US20070281992A1, “COMBINATION OF GYRASE B INHIBITORS AND PROTEIN SYNTHESIS INHIBITORS AND USES THEREOF” (priority 2006, published 2007)
# The name of at least one read-out is uncertain.
# How the values were obtained:
# [1] = system: Staphylococcus aureus 0100 (ATCC 29213); assay: MIC assay, quality control strain S. aureus ATCC 29213; assay type: cell-based; details: repeat runs 22FEB06-09MAR06, combinations at 2.5:1
# Experimental: (§1) Antibiotics: novobiocin, tetracycline, minocycline, oxacillin, and vancomycin were all purchased from Sigma-Aldrich. Linezolid was obtained from Pfizer, Inc. Novobiocin/tetracycline and novobiocin/minocycline were tested in a 2.5:1 ratio to mimic the serum levels. (Vavra, J. J., 1967, Development of resistance to novobiocin, tetracycline, and novobiocin-tetracycline combinations in Staphylococcus aureus populations, J. Bacteriol 93(3):801). Compounds were tested across a concentration range consisting of 11 two-fold serial dilutions of test agent.
# (§2) Stock solutions were prepared in sterile deionized water; novobiocin stock concentration was 1600 μg/mL and all other drugs stock solutions were prepared at 640 μg/mL. The stock solutions were allowed to sit at room temperature for one hour to auto-sterilize prior to use in the test. All compounds were in solution in water. The control agent was vancomycin hydrochloride, Sigma Chemical Lot # 015K0825.
# (§3) The test organisms for the assay were 52 MSSA, 52 MRSA, 8 VISA, 7 VISE, and 3 LRSA isolates. Quality control strains included Staphylococcus aureus 0100 (ATCC 29213) and Enterococcus faecalis (ATCC 29212).
# (§4) The MIC assay was performed according to published NCCLS guidelines. […]
# [2] = system: Enterococcus faecalis (ATCC 29212); assay: MIC assay, quality control strain E. faecalis ATCC 29212; assay type: cell-based; details: repeat runs 22FEB06-09MAR06, combinations at 2.5:1
# Experimental: as §1, §2, §3, §4
smiles,measurement,setting,value
"CN[C@H](CC(C)C)C(=O)N[C@H]1C(=O)N[C@@H](CC(N)=O)C(=O)N[C@H]2C(=O)N[C@H]3C(=O)N[C@H](C(=O)N[C@H](C(=O)O)c4cc(O)cc(O)c4-c4cc3ccc4O)[C@H](O)c3ccc(c(Cl)c3)Oc3cc2cc(c3O[C@@H]2O[C@H](CO)[C@@H](O)[C@H](O)[C@H]2O[C@H]2C[C@](C)(N)[C@H](O)[C@H](C)O2)Oc2ccc(cc2Cl)[C@H]1O [VA, vancomycin]","Minimal Inhibitory Concentration, quality control",[1],1 µg/mL
same,"Minimal Inhibitory Concentration, quality control",[2],4 µg/mL
